From article PMC7289441

T1: Smn-GFP (Drosophila Smn with eGFP fused to its C-terminal end) (Drosophila melanogaster) (UniProt Q9VV74)
T1 sequence: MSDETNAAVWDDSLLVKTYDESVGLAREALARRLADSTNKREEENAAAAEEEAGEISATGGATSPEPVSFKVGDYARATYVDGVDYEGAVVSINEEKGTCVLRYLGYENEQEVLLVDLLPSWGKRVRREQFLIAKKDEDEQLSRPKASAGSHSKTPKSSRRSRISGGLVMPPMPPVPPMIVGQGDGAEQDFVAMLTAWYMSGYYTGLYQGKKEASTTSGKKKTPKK

B1: Gem3 (Drosophila Gemin3), endogenous (protein, UniProt Q9V3C4 1-1028)
chain: MEREIAHSLAGGEERSSDVAPGQVKTFEELRLYRNLLNGLKRNNFVTPTKIQAAAIPMALAKMDLIIQSKSGTGKTLIYVIAVVQSFNPNINQPHAMIVVPTRELAIQVQDTFFHLCKSFRDFKCSAFIGGTDVAKDRKRMNESRVIIGTPGRLLHLYENRVFDVSKLRLLVLDEADQLYQTKSLQHTVSKLIEAMPKNRQIIACSATYDQNLDERLAKVMDKPMLISNSERATVLLGIRQFVYELPQQNNSVEEMRLKLQILGQIFNQLPYEQAIIFASSQMRADSYKNYLTASGIDCHLISGAMEQSERLHVFEGYRNFTMRILVATDLMARGVDSPHANLVINIDPPQDHVTYLHRIGRAGRFGSKGIAITFIASKKESQRFREMSKKIATAWSVLEFPKEPMPNEFNFWDFEKYNFDYYIKEENPLQEMPMPIKENRSKENVDASSVDLENLQKDQDGKRRDPDKLPVALENVETQKELELENLPESSHNNKNLRVKEKEIVRQGKLKETNSKAGGSKTNKTERRKKSNTPSKLQKQITEVQQTPEITVNKYYMQEDIQRTADGKEYHPVNGAGNHQVPSKSNQKPVEFISPELTPTLTPLELTQEPSPTTVTPPAPPANSINNKTYCLAAPTQTSSMTIQNMVISNTVDDASSISSDSMVVCGYHSDRSYDTYYATSDEEEIWNRLMSKQRRQLKSKRGHGKRRVILYKKVFPKLKANVKRKLKKRMSSSCRSKKAHHLRKRHVYKNISLLPHMNLCHLLQKFTNQERFLKRLHKYAKNQFIDNARVGFLLDKLYKSILEMYYNSAKERKKHFKEAMKESLKSIDNYESQESSESEEEEEEEKDLKNKLSVHVTNQMDIPPMPQAAVEIGSGSESDTEDSQEYGEGEEIIVDDEDDGSDGGPNSSSGFVESQESVSSGIDTSVYETESTGASGNNSSAFFISDDESDTESLTDSEAGSNVSATGSSSQRSSVASSTYESSDDDSVTVTNVSSMQNAQSLWLQTFNMQYQFIASHVAKNLQNYY
B2: Gem4b (CG32786), endogenous (protein, UniProt Q8IRT0 1-911)
chain: MITAEKHPLDNCQLFVQLKKIFHDNNEQAKCLKDMIYWSGNDEHIEKICDQVTDLLEEHDLIIQPPDTMDPFAMNQLRGLLVYLVLNTAHDYFLCKSQWSANVMHLCNQLPPIPLFLTIAIAVNCCLMEPLEEFLACGPRWLTIQYFEAFNEALSVINSDCVETLPLLSAALRAAGRAIVNCNLPAENKQLLRQIACMEHRHILDSKQRLHTLPRPSTRKIYLAKAMDHLIEVLLYTLNDPLKREKPNCFAVYSQITEDISDSNSSDPMPDLRHFAQILLDVLQRIFQLVSVDTYMYWHEMKSKSALYNCQELICRQTAELLKVLQSDKLLGEHPVCKQMQSFADAAKTLEQRVAEMRMGELLVFLDSGMATDEELLAGLDNLFSRFIAFGNDECVETMANHLIMLTKKHAQIILSFLGQVVESEMVVEDEGISVTEVNQGDDEDETSSNDDYEELLSLVLRPLFMQLNVEDKMEVLLLRDEQNVTQGFNFKAPDHRERRIRFFNQLDYNKRFPITKFLVLCFENARQTWIDFSHLGVTHTRFSKLFWHIAQSCPKHAAFHISACADNILVNEQLLQKPYALQFTLYLYGHRQILNGLYTSARQLCVSLKDGRCPYGEDELRQAQNRFLDACAYGLAKFIEPMNLPSLQLILKLLKQISLGESNLITRGTAELNALEKEHPKLENGDDAPAVKVAKHYTYLNASLPEWRLKHWKLISHVMKTIDALRWDLATFEDFRVDNLELAVWYWQDGLSHLTFLGTECRQRILNQVNSLKHKGFWLIYLKEDTLKDTRSFLKLLTQSSAQEANDLFNKLLKKRADCAVMGDLSDAVVKVNSESAFMAFRFLFREYLIAFRSHAKHNKTITKRQHWDHLMAVVAKAPFSIRNEIMKLASKAFAVRFGINIQEQQAAKC
B3: Gem4a (Glos or CG2941), endogenous (protein, UniProt Q9W4N9 1-911)
chain: MITAKKHPLDNCQLFVQLKKLFHDYNEKVQRLKDMIYWSGNDEHIAKICDQVTDLLVEHDLIIQPPDTMDPCAMNHLRGLLVYLVLNTAHDDIQCESQWSANVMHLCNQLPPIPLFLTIAIAVNCCLMEPLEEFLACGPRWLTIQYFEAFNEALSVINSDCVETLPLLSAALRAAGRAIVNCNLPAENKQLLRQIACMEHRHILDSKQRLHTLPRPSTRKIYLAKAMDHLIEVLLYTLNDPLKREKPNCFAVYSQITEDISDSNSSDPMPDLRHFAQILLDVLQRIFQLVSVDTYMYWHEMKSKSALYNCQELICRQTAELLKVLQSDKLLGEHPVCKQMQSFADAAKTLEQRVAEMRIGELLAFIDSGMATNEELLAGLDNLFSRFIAFGSDECLETMANHLIMLTKKHAQIILSFLGQVVESEMVVEDEGISVTEVNQGDDEDETSSNDDYEELLSLVLRPLFMQLNVEDKMEVLLLRDEQNVTQGFNFKAPDHRERRIRFFNQLDYNKRFPITEFLVLCFENARQTWIDFSHLGVTHTRFSKLFWHIAQSCPKHAAFHISACADNILVNEQLLQKPYALQFTLYLYGHRQILNGLYTSARQLCVSLKDGRCPYGEDELRQAQNRFLDACAYGLAKFIEPMNLPSLQLILKLLKQISLGESNLITRGTAELNALEKEHPKLENGDDAPAVKVAKHYTYLHASLPEWRLKHWKLISHVMKTIDALRWDLATFEDFRVDNLELAVWYWQDGLSHLTFLGTEFRQRILNQVSKLKHKDFWIIYLKEDTLKDTRSFLKLLTQSSAQEANDLFNKLLKKRADCAVMGDLSDAVVKVNSESAFMAFRFLFREYLIAFRSHAKHNKTITKRQHWDHLMAVVAKAPFSIRNEIMELASKAFAVRFGINIQEQQAAKC
B4: Gem2 (Drosophila Gemin2), endogenous (protein, UniProt Q9VVX0 1-245)
chain: MQHEPEDQTFQLQALEICEPDSSFDPQKPPESGEEYLMHMFYERKRCPAVVTKRSSKIRNNTGNTTLEMLDNPELPPFKCLLPTPEWRDEQVKSFQAARSQVLVLRKELANNNYDQSGEPPLTSDQEKWKEFCRNQQPLLSTLLHLTQNDLELLLEMLSKWLQDPNTTVDLLHDVWLARWLYATLVCLHLPLEPHVFSTLRYIARTCIHLRNQLKEDEVQRAAPYNLLLTLTVQVFAQNDFKDYI
B5: Cap binding protein (Cbp80), endogenous (protein, UniProt Q7K4N3 1-800)
chain: MSRRRAHDTEDEGYDHRRNKRRRVSENQEIEDRLESLILRVGERSTSSVESNLEGLVSVLEADLGTFRLKILRILSDCAVRMPEKCTVYTTLVGLLNAKNYKFGGEFVDHMVKTFKESLKMCRWDAARYSLRFLADLVNCHVISATSLLQLLDTMIDVSNEDTVPQVRRDWFVFAVLSTLPWVGRDLYEKKESALESLLLRIEVYLNKRSKKHHNALRVWSSDAPHPQEEYLDCLWAQIRKLRQDNWAEKHIPRPYLVFDSILCEALQHNLPTIVPPPHHDNFEYPMPWVVYRMFDYTDCPDGPNLPGAHSIERFLIEEHLHHIIETYHHERKDCAAQLLSFPYKHKIPLEYCIVEVVFAELFHMPTPRYLDICYGSILIELCKLQPATLPQVLAQATEILFMRIDSMNTSCFDRFVNWFSYHLSNFKFTWSWDEWDSCLLLDGEHPRPKFIQEVLQKCLRLSYHQRITEMMPTTYAKLIPLTPVPNYKYANEEAANLPGTTVAHQLVVAIRQKCTPEEVVNILKDIPNSGYSGEEMSDGSFNALKIDVFVQTLLNLGSKSFSHSFAAISKFHSVFRALAETEEAQICILHNIFELWSSHQQMMVVLIDKLLKLQIVDCSAVATWIFSKEMTGEFTKLYLWEILHLTIKKMNKHVIKLNTELSEAKEKLAKADSSSSDSEDDSSHKRKKPITHADKPSEEVVERMEEKLEAANVNQKRLFLIVFQRFIMILSEHLLRSDTDGRDPDTDWYRWTIGRLQQVFLMHHEQVQKYSSTLETLLFTSDLDTHILEVFQQFVALRA

molecular target: T1, Smn-GFP (Drosophila Smn with eGFP fused to its C-terminal end) (Drosophila melanogaster); assay: affinity purification with mass spectrometry; Smn-GFP as bait on GFP-TRAP-A beads; clarified extract of 0-3 h embryos in C buffer (50 mM HEPES pH 7.4, 50 mM KCl, 1 mM MgCl2, 1 mM EGTA, 0.1% IGEPAL CA-630), 2 h at 4°C; stringent filtering against negative controls, score above 50

Row | binding | Molecule
1 | binds | Lsm11, endogenous
2 | binds | B1
3 | binds | B2
4 | binds | B3
5 | binds | B4
6 | binds | B5

No constants are given. Whether binding was seen depends on the method and setting. In cells and extracts the contact can be indirect. Here binding means that the protein was enriched with, or labelled near, the bait; the list need not be complete. Tags and fused reporters may be left off the sequences shown.
